Source: article PMC8885668
For at least one entry, the source does not settle the construct or the ends of the probe. The comparison behind a weaker result is the experiment's own reference, which may not be listed here. For some assays here: Tags and fusion partners may be left off the protein sequences shown.

Sequences of proteins named here, by UniProt entry; tags and fusion partners are left off. Residues count along the entry.
UniProt P07288, 25-261: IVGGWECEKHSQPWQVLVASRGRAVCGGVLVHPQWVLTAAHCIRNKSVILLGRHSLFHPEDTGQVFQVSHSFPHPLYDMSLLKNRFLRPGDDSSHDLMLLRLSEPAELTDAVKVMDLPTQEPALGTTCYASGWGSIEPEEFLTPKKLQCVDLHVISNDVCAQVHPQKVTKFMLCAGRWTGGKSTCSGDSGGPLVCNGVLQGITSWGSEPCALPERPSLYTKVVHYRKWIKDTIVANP

Assays:
[1] = target: prostate-specific antigen (PSA) (UniProt P07288); test: electrochemical aptasensor (DPV); settings: 100 ng/mL, slight change in current density; 5' NH2-(CH2)6, amide-coupled to MPA on electrode; DPV in 0.1 M PBS pH 7.4, 5.0 mM K4[Fe(CN)6]/K3[Fe(CN)6] (1:1), 0.1 M KCl; 50 nM aptamer immobilized; 40 min protein incubation; BSA-blocked; single-stranded …
[2] = target: T1, carcinoembryonic antigen (CEA) (UniProt P06731); test: electrochemical aptasensor (DPV); settings: 100 ng/mL, slight change in current density; 5' NH2-(CH2)6, amide-coupled to MPA on electrode; DPV in 0.1 M PBS pH 7.4, 5.0 mM K4[Fe(CN)6]/K3[Fe(CN)6] (1:1), 0.1 M KCl; 50 nM aptamer immobilized; 40 min protein incubation; BSA-blocked; single-stranded …
T1 sequence (looked up, limits assumed): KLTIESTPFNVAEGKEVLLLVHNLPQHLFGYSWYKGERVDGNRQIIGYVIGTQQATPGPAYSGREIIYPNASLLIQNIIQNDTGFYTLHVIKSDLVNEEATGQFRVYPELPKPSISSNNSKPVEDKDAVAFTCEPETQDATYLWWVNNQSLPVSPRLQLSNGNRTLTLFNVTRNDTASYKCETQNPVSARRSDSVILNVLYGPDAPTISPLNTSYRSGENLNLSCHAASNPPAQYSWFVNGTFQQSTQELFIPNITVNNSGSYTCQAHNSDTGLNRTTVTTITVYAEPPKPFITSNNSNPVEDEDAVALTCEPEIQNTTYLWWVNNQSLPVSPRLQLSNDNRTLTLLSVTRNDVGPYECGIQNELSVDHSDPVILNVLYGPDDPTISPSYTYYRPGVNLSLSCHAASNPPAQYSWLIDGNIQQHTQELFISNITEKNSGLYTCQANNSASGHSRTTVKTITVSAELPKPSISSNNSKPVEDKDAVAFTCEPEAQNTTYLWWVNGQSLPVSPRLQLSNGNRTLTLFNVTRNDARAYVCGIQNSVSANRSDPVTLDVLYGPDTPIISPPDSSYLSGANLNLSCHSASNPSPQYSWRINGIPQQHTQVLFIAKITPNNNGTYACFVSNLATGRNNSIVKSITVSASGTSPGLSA

Sequence: GGGCCGTCGAACACGAGCATGGTGCGTGGACCTAGGATGACCTGAGTACTGTCC [anti-HER2 aptamer]
- binding result [1]: binds more weakly
- binding result [2]: binds more weakly
